According to the supplement of paper PMC9744312:
Counter-ions that a name gives are not always drawn. The list shows a part of the results. The data scatter; read single values as rough.

Each molecule was assayed on Peyronie's disease tunica albuginea primary fibroblasts (assay: cell viability (DRAQ5 nuclear stain) relative to TGF-beta1-only control; higher = more viable cells). Settings: 10 µM; TGF-beta1 10 ng/mL; 72 h.

Structure (SMILES) | cell viability [%]
C[C@](N)(Cc1ccc(O)c(O)c1)C(=O)O [Methyldopa] | 92.5
Cc1c(C(=O)NN2CCCCC2)nn(-c2ccc(Cl)cc2Cl)c1-c1ccc(Cl)cc1 [Rimonabant] | 57.1
C[C@H]1c2cccc(O)c2C(=O)C2=C(O)[C@]3(O)C(=O)C(C(N)=O)=C(O)[C@@H](N(C)C)[C@@H]3[C@@H](O)[C@@H]21 [Doxycycline Hyclate] | 100
C[C@H]1c2cccc(O)c2C(=O)C2=C(O)[C@]3(O)C(=O)C(C(N)=O)=C(O)[C@@H](N(C)C)[C@@H]3[C@@H](O)[C@@H]21 [Doxycycline] | 84.8
COc1cc2c(cc1OC)CC(=O)N(CCCN(C)C[C@H]1Cc3cc(OC)c(OC)cc31)CC2 [Ivabradine HCl] | 93.6
O=C(O)c1cc(/N=N/c2ccc(O)c(C(=O)O)c2)ccc1O [Olsalazine Sodium] | 91.9
CC(=O)NCCCS(=O)(=O)O [Acamprosate Calcium] | 83.3
CNC(=O)c1cc(Oc2ccc(NC(=O)Nc3ccc(Cl)c(C(F)(F)F)c3)c(F)c2)ccn1 [Regorafenib (BAY 73-4506)] | 47.8
CNC(=O)c1cc(Oc2ccc(NC(=O)Nc3ccc(Cl)c(C(F)(F)F)c3)c(F)c2)ccn1 [Regorafenib Monohydrate] | 60.7
CC(C)(C)NCC(O)COc1cccc2c1CCC(=O)N2 (configuration not stated) [Carteolol HCl] | 85.8
CC(C)C[C@H](NC(=O)[C@@H](NC(=O)c1cccc(-c2ccccc2)n1)[C@@H](C)O)B(O)O | 22.2
CCC/N=C1\S/C(=C\c2ccc(OC[C@H](O)CO)c(Cl)c2)C(=O)N1c1ccccc1C [Ponesimod] | 92.2
Nc1nc2ccc(OC(F)(F)F)cc2s1 [Riluzole] | 87.9
CN1CCC(=C2c3ccccc3CCc3cccnc32)CC1 [Azatadine dimaleate] | 97.5
COc1ccc2c(c1)c(CC(=O)O)c(C)n2C(=O)c1ccc(Cl)cc1 [Indomethacin] | 85.9
COc1ccc2c(c1)c(CC(=O)O)c(C)n2C(=O)c1ccc(Cl)cc1 [Indometacin Sodium] | 80.6
C(=C\c1ccccc1)/CN1CCN(C(c2ccccc2)c2ccccc2)CC1 [Cinnarizine] | 87.2
C[C@@H]1CCO[C@H]2Cn3cc(C(=O)NCc4ccc(F)cc4F)c(=O)c(O)c3C(=O)N12 | 90.3
CO[C@H]1/C=C/O[C@@]2(C)Oc3c(C)c(O)c4c(O)c(cc(O)c4c3C2=O)NC(=O)/C(C)=C\C=C\[C@H](C)[C@H](O)[C@@H](C)[C@@H](O)[C@@H](C)[C@H](OC(C)=O)[C@@H]1C [Rifamycin sodium salt] | 99
O=C(C1CCCCC1)N1CC(=O)N2CCc3ccccc3C2C1 (configuration not stated) [Praziquantel] | 99
O=C([O-])c1ccccc1.[Na+] [Sodium benzoate] | 95.1
C[C@]1(O)C[C@@H](c2nc(-c3ccc4ccc(-c5ccccc5)nc4c3)c3c(N)nccn32)C1 [Linsitinib (OSI-906)] | 84.9
C=CCNC(N)=S [Allylthiourea] | 76

Structure (SMILES) | cell viability [%]
CN(C)CCOC(C)(c1ccccc1)c1ccccn1 (configuration not stated) [Doxylamine Succinate] | 79.1
COc1cc2nccc(Oc3ccc(NC(=O)Nc4cc(C)on4)c(Cl)c3)c2cc1OC [Tivozanib (AV-951)] | 69.2
CC(C)(C#N)c1cc(Cn2cncn2)cc(C(C)(C)C#N)c1 [Anastrozole] | 75.5
Oc1c(I)cc(Cl)c2cccnc12 [Clioquinol] | 84.8
C[C@@H](O)[C@H]1C(=O)N2C(C(=O)O)=C(S[C@@H]3CN[C@H](CNS(N)(=O)=O)C3)[C@H](C)[C@H]12 [Doripenem] | 98.5
C[C@@H](O)[C@H]1C(=O)N2C(C(=O)O)=C(S[C@@H]3CN[C@H](CNS(N)(=O)=O)C3)[C@H](C)[C@H]12 [Doripenem Hydrate] | 75.3
Nc1ccn([C@H]2CC[C@@H](CO)O2)c(=O)n1 [Zalcitabine] | 98.7
CC(S)C(=O)NCC(=O)O (configuration not stated) [Tiopronin] | 92.5
CN1CCN(CCCN2c3ccccc3Sc3ccc(C(F)(F)F)cc32)CC1 [Trifluoperazine 2HCl] | 74.7
CNC[C@H](O)c1ccc(O)c(O)c1 [Epinephrine HCl] | 97.6
CNC[C@H](O)c1ccc(O)c(O)c1 [Epinephrine bitartrate] | 104
COC[C@H]1C[C@@H](c2nc(-c3ccc4c(c3)COc3cc5c(ccc6nc([C@@H]7CC[C@H](C)N7C(=O)[C@@H](NC(=O)OC)C(C)C)[nH]c65)cc3-4)c[nH]2)N(C(=O)[C@H](NC(=O)OC)c2ccccc2)C1 [Velpatasvir] | 85.8
OC(CNCC(O)C1CCc2cc(F)ccc2O1)C1CCc2cc(F)ccc2O1 (configuration not stated) [Nebivolol HCl] | 54.6
CC[C@H](C)[C@H](N)C1=N[C@H](C(=O)N[C@@H](CC(C)C)C(=O)N[C@H](CCC(=O)O)C(=O)N[C@H](C(=O)N[C@H]2CCCCNC(=O)[C@H](CC(N)=O)NC(=O)[C@@H](CC(=O)O)NC(=O)[C@H](Cc3cnc[nH]3)NC(=O)[C@@H](Cc3ccccc3)NC(=O)[C@H]([C@@H](C)CC)NC(=O)[C@@H](CCCN)NC2=O)[C@@H](C)CC)CS1 [Bacitracin] | 97.4
NC(=O)c1cccc2cn(-c3ccc([C@@H]4CCCNC4)cc3)nc12 [Niraparib (MK-4827) tosylate] | 87.6
NC(=O)c1cccc2cn(-c3ccc([C@@H]4CCCNC4)cc3)nc12 [Niraparib (MK-4827)] | 77.5
CC(=O)NS(=O)(=O)c1ccc(NC(=O)c2ccccc2C(=O)O)cc1 [Phthalylsulfacetamide] | 92.2
Cc1cc(/C=C/C#N)cc(C)c1Nc1ccnc(Nc2ccc(C#N)cc2)n1 [Rilpivirine] | 78.9
Oc1c(Cl)cc(Cl)c(Cl)c1Cc1c(O)c(Cl)cc(Cl)c1Cl [Hexachlorophene] | 41.4
CCOc1cc2ncc(C#N)c(Nc3ccc(F)c(Cl)c3)c2cc1NC(=O)/C=C/CN(C)C [Pelitinib (EKB-569)] | 57.4
COc1ccc(/C=C/C(=O)Nc2ccccc2C(=O)O)cc1OC [Tranilast] | 69.4
CCN(CC)CCNC(=O)c1c(C)[nH]c(/C=C2\C(=O)Nc3ccc(F)cc32)c1C [Sunitinib] | 77.1
CCN(CC)CCNC(=O)c1c(C)[nH]c(/C=C2\C(=O)Nc3ccc(F)cc32)c1C [Sunitinib Malate] | 31.7

Shown in markdown: part of the list above

| Structure (SMILES) | cell viability [%] |
| --- | --- |
| CN(C)CCOC(C)(c1ccccc1)c1ccccn1 (configuration not stated) [Doxylamine Succinate] | 79.1 |
| COc1cc2nccc(Oc3ccc(NC(=O)Nc4cc(C)on4)c(Cl)c3)c2cc1OC [Tivozanib (AV-951)] | 69.2 |

Additional records follow.

Structure (SMILES) | cell viability [%]
Oc1ccc(/C=C/c2cc(O)cc(O)c2)cc1 [Resveratrol] | 91.3
CN1[C@@H]2CC[C@H]1C[C@@H](OC(=O)c1c[nH]c3ccccc13)C2 [Tropisetron HCl] | 82.5
CN1[C@@H]2CC[C@H]1C[C@@H](OC(=O)c1c[nH]c3ccccc13)C2 [Tropisetron] | 80.4
Cc1cccc(C)c1OCC(C)N (configuration not stated) [Mexiletine HCl] | 79.9
COc1ccccc1OCC(O)CO (configuration not stated) [Guaifenesin] | 94.9
CC[C@]1(O)C[C@H]2CN(CCc3c([nH]c4ccccc34)[C@@](C(=O)OC)(c3cc4c(cc3OC)N(C=O)[C@H]3[C@@](O)(C(=O)OC)[C@H](OC(C)=O)[C@]5(CC)C=CCN6CC[C@]43[C@@H]65)C2)C1 [Vincristine sulfate] | 80.3
Nc1nc(CC(=O)Nc2ccc(CCNC[C@H](O)c3ccccc3)cc2)cs1 [Mirabegron] | 91.3
NC[C@@H]1O[C@H](O[C@H]2[C@@H](O)[C@H](O[C@@H]3[C@@H](O)[C@H](N)C[C@H](N)[C@H]3O[C@H]3O[C@H](CO)[C@@H](O)[C@H](O)[C@H]3N)O[C@@H]2CO)[C@H](N)[C@@H](O)[C@@H]1O [Paromomycin Sulfate] | 91.9
Cc1cc(=O)[nH]c(=S)[nH]1 [Methylthiouracil] | 97.9
C[C@H]1O[C@@H](O[C@H]2[C@@H](O)C[C@H](O[C@H]3[C@@H](O)C[C@H](O[C@H]4CC[C@@]5(C)[C@H](CC[C@@H]6[C@@H]5C[C@@H](O)[C@]5(C)[C@@H](C7=CC(=O)OC7)CC[C@]65O)C4)O[C@@H]3C)O[C@@H]2C)C[C@H](O)[C@@H]1O [Digoxin] | 24.3
C[C@H](CCC(=O)O)[C@H]1CC[C@H]2[C@@H]3[C@H](O)C[C@@H]4C[C@H](O)CC[C@]4(C)[C@H]3C[C@H](O)[C@]12C [Cholic acid] | 91.9
OB1OCc2cc(F)ccc21 [Tavaborole (AN-2690)] | 75.6
CC[C@H]1OC(=O)[C@H](C)[C@@H](O[C@H]2C[C@@](C)(OC)[C@@H](O)[C@H](C)O2)[C@H](C)[C@@H](O[C@@H]2O[C@H](C)C[C@H](N(C)C)[C@H]2O)[C@](C)(O)C[C@@H](C)C(=O)[C@H](C)[C@H]2OC(=O)O[C@@]21C [Erythromycin Cyclocarbonate] | 86.3
Cc1c(OCC(F)(F)F)ccnc1C[S@@+]([O-])c1nc2ccccc2[nH]1 [Dexlansoprazole] | 83.5
CC(C(=O)O)c1ccc(-c2ccccc2)c(F)c1 (configuration not stated) [Flurbiprofen] | 101
NC(=O)c1cn(Cc2c(F)cccc2F)nn1 [Rufinamide] | 104
O=C(OCC(O)CO)c1ccccc1Nc1ccnc2cc(Cl)ccc12 (configuration not stated) [Glafenine HCl] | 87.3
CC(=O)C1C(=O)C=C(C)OC1=O (configuration not stated) [Dehydroacetic acid] | 95.4
Nc1nc2[nH]cnc2c(=S)[nH]1 [Thioguanine] | 91.1
Cc1ccccc1C(=O)Nc1ccc(C(=O)N2CCCC(O)c3cc(Cl)ccc32)c(C)c1 (configuration not stated) [Tolvaptan] | 98.8
CC(C)c1cc2c(cc1S(=O)(=O)O)[C@@]1(C)CCC[C@@](C)(C(=O)O)[C@@H]1CC2 [Ecabet sodium] | 92.8

Taken from above:
cell viability [%] with CO[C@H]1/C=C/O[C@@]2(C)Oc3c(C)c(O)c4c(O)c(cc(O)c4c3C2=O)NC(=O)/C(C)=C\C=C\[C@H](C)[C@H](O)[C@@H](C)[C@@H](O)[C@@H](C)[C@H](OC(C)=O)[C@@H]1C [Rifamycin sodium salt] is entered as 99
cell viability [%] with Cc1cc(=O)[nH]c(=S)[nH]1 [Methylthiouracil] is entered as 97.9
